Results as given in paper PMC13377174.
Results are given in words; binding and its absence hold for the method and conditions named. In cells and extracts the contact can be indirect. A yes stands for co-enrichment or nearness to the bait. Other partners may have been found.

The chains behind the UniProt entries cited, without tags or fusion partners.
UniProt P42859: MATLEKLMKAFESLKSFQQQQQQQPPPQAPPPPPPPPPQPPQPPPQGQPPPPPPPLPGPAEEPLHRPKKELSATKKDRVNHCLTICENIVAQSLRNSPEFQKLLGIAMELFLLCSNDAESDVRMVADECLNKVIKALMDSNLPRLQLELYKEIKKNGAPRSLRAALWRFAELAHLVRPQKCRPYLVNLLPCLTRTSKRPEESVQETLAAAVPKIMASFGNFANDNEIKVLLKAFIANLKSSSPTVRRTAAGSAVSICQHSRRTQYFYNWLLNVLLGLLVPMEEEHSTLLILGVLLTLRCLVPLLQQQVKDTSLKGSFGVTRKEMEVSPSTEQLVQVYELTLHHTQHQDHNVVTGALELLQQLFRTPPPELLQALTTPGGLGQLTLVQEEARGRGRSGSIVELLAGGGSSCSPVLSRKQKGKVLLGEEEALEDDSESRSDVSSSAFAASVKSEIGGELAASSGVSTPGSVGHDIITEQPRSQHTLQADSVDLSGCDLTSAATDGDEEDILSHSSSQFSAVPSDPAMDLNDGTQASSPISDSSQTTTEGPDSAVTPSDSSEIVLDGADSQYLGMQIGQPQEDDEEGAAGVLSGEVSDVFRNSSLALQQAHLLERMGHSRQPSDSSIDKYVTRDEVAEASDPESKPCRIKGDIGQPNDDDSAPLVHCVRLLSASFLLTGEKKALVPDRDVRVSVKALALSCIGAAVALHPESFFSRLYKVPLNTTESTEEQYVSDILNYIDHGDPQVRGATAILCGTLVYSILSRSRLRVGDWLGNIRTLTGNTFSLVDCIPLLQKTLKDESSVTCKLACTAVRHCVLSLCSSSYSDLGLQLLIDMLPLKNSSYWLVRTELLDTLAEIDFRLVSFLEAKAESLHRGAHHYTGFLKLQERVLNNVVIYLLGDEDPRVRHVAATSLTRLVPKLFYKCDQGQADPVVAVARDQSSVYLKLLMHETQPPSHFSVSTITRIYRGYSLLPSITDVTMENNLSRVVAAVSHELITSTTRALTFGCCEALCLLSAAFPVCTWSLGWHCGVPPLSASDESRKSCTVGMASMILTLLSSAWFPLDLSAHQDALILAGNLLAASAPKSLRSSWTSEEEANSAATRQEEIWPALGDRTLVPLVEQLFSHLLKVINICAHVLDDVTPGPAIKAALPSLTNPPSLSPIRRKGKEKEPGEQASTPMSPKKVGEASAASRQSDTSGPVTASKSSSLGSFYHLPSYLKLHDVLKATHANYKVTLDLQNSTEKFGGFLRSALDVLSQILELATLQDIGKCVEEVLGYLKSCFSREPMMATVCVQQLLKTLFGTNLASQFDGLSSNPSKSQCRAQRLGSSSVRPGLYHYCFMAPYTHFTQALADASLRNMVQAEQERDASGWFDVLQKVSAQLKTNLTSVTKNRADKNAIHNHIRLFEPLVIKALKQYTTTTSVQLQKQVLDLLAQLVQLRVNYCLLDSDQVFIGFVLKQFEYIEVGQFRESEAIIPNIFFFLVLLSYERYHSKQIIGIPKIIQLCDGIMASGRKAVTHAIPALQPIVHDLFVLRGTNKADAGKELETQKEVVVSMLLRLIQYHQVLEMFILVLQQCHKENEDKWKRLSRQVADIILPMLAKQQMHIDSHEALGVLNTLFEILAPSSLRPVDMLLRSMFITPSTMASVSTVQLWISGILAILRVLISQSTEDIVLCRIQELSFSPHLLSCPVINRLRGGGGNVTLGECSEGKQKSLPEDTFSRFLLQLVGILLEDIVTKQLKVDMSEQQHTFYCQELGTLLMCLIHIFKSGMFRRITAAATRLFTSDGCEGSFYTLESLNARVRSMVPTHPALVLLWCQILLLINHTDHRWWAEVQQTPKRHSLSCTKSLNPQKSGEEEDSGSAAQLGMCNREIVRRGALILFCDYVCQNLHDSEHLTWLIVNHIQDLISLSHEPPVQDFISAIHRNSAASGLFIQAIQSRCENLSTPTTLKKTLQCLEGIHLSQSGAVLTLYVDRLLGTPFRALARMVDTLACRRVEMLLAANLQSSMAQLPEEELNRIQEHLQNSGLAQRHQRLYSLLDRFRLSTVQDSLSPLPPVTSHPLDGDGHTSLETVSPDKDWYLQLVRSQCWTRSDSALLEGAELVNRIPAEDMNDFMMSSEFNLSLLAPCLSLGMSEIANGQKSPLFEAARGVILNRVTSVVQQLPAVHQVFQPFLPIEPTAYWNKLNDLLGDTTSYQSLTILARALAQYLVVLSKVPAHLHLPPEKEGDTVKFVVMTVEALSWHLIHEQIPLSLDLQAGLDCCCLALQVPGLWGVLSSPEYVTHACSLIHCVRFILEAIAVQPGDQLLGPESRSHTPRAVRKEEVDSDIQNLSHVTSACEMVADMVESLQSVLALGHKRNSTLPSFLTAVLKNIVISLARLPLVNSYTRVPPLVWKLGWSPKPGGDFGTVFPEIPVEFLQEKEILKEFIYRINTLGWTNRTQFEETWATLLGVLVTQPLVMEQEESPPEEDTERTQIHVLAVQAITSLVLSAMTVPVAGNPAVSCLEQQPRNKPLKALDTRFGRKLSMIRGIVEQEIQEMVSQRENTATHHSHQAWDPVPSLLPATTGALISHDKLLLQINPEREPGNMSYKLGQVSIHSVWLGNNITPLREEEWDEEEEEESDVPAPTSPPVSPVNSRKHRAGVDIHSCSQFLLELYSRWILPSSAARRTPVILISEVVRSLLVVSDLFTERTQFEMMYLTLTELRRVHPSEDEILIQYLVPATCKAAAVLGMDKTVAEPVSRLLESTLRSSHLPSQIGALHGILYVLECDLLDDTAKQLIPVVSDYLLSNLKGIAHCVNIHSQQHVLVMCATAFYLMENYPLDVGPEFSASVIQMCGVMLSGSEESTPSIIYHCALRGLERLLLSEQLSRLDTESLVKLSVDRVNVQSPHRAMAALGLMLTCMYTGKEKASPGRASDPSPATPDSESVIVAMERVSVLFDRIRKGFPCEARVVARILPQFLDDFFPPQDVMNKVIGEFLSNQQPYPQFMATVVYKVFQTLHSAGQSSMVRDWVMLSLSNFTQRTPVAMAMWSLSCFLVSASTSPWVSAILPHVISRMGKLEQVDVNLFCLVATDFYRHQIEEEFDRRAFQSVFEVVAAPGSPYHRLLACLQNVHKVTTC
UniProt Q62193: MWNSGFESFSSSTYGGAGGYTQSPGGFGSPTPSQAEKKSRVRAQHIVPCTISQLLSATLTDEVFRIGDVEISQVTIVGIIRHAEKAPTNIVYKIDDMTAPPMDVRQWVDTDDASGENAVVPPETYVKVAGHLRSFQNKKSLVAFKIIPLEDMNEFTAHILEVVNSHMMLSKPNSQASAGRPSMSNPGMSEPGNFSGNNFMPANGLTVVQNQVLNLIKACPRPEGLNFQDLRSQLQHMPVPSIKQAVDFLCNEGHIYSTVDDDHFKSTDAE
UniProt Q9CQ71: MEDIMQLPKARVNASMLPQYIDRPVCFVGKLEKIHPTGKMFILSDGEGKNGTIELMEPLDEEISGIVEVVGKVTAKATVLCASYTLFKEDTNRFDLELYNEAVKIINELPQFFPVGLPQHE
UniProt P11103: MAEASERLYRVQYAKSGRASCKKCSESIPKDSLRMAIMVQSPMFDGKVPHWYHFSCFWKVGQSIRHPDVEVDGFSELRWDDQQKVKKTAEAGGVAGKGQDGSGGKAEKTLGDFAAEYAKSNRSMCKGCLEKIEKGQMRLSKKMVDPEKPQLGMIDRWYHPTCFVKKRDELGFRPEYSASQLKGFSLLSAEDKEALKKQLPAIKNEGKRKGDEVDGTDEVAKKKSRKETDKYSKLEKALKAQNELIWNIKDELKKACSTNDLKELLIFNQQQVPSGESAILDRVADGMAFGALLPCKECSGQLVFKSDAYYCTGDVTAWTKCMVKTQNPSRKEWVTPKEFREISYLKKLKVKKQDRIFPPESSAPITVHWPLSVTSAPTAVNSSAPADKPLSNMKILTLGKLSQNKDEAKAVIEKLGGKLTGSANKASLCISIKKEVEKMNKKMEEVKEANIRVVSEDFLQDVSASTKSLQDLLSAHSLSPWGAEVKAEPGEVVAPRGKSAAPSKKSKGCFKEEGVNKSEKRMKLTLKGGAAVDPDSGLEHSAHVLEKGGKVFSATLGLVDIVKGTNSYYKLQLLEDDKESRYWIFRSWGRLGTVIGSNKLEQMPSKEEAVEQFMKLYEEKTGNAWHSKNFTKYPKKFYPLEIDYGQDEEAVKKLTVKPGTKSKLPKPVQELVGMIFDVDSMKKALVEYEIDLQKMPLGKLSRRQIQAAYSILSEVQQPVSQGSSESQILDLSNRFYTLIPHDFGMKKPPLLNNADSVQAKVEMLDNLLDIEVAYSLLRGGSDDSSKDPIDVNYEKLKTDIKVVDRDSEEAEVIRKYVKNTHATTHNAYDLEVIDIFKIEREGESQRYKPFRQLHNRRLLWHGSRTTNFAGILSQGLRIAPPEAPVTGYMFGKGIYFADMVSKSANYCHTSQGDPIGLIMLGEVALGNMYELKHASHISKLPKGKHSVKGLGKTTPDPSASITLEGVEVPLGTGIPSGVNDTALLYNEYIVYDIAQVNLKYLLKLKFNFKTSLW
UniProt Q8VEE4: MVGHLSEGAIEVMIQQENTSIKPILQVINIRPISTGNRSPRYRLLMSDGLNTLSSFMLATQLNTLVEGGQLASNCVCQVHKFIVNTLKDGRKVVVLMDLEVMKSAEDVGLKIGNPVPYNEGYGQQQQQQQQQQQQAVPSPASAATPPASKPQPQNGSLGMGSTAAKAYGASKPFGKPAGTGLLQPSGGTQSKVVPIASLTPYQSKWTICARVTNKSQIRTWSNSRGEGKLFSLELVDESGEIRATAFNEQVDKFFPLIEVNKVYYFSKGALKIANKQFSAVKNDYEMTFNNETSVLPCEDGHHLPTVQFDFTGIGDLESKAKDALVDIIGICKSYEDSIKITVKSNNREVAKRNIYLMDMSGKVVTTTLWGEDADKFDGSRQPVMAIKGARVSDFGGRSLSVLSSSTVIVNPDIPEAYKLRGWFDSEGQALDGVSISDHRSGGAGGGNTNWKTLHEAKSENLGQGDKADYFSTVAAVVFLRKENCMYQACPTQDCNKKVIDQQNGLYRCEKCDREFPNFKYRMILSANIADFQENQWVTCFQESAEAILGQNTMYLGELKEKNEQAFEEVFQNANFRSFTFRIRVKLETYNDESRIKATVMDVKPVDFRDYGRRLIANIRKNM
UniProt P70388: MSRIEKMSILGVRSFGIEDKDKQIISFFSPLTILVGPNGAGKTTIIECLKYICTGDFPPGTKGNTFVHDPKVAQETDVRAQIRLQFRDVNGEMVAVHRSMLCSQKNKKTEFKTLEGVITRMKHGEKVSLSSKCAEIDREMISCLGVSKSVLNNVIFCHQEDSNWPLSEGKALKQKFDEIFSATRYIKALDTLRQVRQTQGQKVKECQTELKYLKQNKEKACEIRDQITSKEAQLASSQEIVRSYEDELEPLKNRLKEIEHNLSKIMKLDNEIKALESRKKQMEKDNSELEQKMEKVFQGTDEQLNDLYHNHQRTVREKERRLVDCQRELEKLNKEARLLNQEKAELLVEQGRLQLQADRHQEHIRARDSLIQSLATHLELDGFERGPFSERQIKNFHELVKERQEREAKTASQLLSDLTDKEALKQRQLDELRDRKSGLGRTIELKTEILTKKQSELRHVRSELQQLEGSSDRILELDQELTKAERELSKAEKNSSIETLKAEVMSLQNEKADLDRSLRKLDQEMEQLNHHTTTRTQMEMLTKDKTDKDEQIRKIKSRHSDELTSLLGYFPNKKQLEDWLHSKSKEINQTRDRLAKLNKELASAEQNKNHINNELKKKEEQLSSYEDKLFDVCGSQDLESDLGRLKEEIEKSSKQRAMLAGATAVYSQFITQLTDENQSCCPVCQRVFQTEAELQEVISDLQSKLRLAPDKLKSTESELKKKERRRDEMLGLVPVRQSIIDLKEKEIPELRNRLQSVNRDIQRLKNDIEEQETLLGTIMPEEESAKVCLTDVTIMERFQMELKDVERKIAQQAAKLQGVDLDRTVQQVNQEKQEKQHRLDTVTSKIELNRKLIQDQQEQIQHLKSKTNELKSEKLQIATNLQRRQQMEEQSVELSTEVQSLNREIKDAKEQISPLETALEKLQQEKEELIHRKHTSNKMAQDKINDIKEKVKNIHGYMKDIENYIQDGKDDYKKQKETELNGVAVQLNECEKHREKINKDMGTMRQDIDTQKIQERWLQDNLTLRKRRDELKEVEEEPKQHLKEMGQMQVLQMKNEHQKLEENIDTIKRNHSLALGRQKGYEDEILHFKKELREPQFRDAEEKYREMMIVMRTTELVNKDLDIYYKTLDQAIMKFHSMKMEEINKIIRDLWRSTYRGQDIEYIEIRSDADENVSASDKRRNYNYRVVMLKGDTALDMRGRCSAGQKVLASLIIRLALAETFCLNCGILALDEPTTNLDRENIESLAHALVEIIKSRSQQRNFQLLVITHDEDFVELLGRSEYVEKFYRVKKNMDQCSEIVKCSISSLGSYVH

B1: ligase 3 (protein, UniProt P97386 1-1015)
chain: MTLAFKILFPRNLCALGRKELCLFPEQNRWAAISQFSQWSETNLLGGCCLLQRRKPVLALQRGHLRPRATHLTFWPGSHVGLCTGPCAMAEQRFCVDYAKRGTAGCKKCKEKIVKGVCRIGKVVPNPFSESGGDMKEWYHIKCMFEKLERARATTKKIEDLTELEGWEELEDNEKEQISQHIADLSSKAAATPKKKAAVQAKLTTTGQVTSPVKGASFITSTNPRKFSGFSAAKPNNSEQAPSSPAPGTSLSASKCDPKHKDCLLREFRKLCAMVAENPSYNTKTQIIHDFLQKGSTGGFSDGFHGDVYLTVKLLLPGVIKSVYNLNDKQIVKLFSRIFNCNPDDMARDLEQGDVSETIRIFFEQSKSFPPAAKSLLTIQEVDAFLLHLSKLTKEDEQQQALQDIASRCTANDLKCIIRLIKHDLKMNSGAKHVLDALDPNAYEAFKASRNLQDVVERVLHNEQEVEKDPGRRRALRVQASLMTPVQPMLAEACKSIEYAMKKCPNGMFSEIKYDGERVQVHKKGDHFSYFSRSLKPVLPHKVAHFKDYIPKAFPGGQSMILDSEVLLIDNNTGKPLPFGTLGVHKKAAFQDANVCLFVFDCIYFNDVSLMDRPLCERRKFLHDNMVEIRNRIMFSEMKQVTKASDLADMINRVIREGLEGLVLKDVKGTYEPGKRHWLKVKKDYLNEGAMADTADLVVLGAFYGQGSKGGMMSIFLMGCYDPDSQKWCTVTKCAGGHDDATLARLQKELVMVKISKDPSKIPSWLKINKIYYPDFIVPDPKKAAVWEITGAEFSRSEAHTADGISIRFPRCTRIRDDKDWKSATNLPQLKELYQLSKDKADFAVVAGDEASPTTGGSSGENEGTAGSAGPCKGPPSKSSASAKTTEQKLNSPSSRGGIKPIPKHSPMKPGEKLAVKSSPVKVGMKRKATDETPCLKKVLLDVFTGVRLYLPPSTPDFKRLKRYFVAFDGDLVQEFDMGSATHVLGNREKNTDAQLVSSEWIWACIRKRRLIAPC

The molecules below were run against huntingtin protein (normal, endogenous mouse) (mouse (endogenous in mouse brain tissue and NIH3T3)) (UniProt P42859) (assay: affinity purification with mass spectrometry; IP-MS from brain tissue lysate of n = 3 WT and n = 3 HdhQ(150/150) mice; anti-Htt antibody mixture (MAB-2166, MAB-2168, MAB2170) on Dynabead Protein G, 18 h at 4 °C; DIA mass spectrometry; control IgG gave no pulldown products).

Molecule	binding
replication protein A protein RPA32 (from UniProt Q62193 1-270)	binds
replication protein A protein RPA14 (from UniProt Q9CQ71 1-121)	binds
Poly {ADP-ribose} polymerase (PARP1) (from UniProt P11103 1-1013)	binds
replication protein A protein RPA70 (from UniProt Q8VEE4 1-623)	binds
B1	binds

What follows are molecules tested against huntingtin protein (normal, endogenous mouse) (mouse (endogenous in mouse brain tissue and NIH3T3)) (UniProt P42859) (assay: affinity purification with mass spectrometry; IP-MS from NIH3T3 cell lysate, cells with endogenous Htt alone or overexpressing htt (26 CAG) or mhtt (51 CAG); anti-Htt antibody mixture on Dynabead Protein G, 18 h at 4 °C; DIA mass spectrometry, triplicate).

Molecule	binding
Poly {ADP-ribose} polymerase (PARP1) (from UniProt P11103 1-1013)	binds
RAD50 (from UniProt P70388 1-1312)	binds weakly
B1	binds
